Hit rate of the full screen: of about 52,000 sequences, about 210 (0.4%) were called active.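 Rule for the calls: active = gene whose silencing raises cell survival under the drug, median off-target-corrected z-score across its silencing RNAs 2 or more; inactive = the rest.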 Some of the results follow.
test: Resistance to Poly (ADP-Ribose) Polymerase inhibitor: Gene Identification via Genome-wide siRNA Screen; conditions: mouse BRCA2 R2336H ES cells, olaparib, CellTiter-Glo viability; hits give high values
Procedure, shortened: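 Genome-wide siRNA screen (3 siRNAs/gene, 20 nM) in mouse ES cells carrying hypomorphic BRCA2 R2336H; olaparib 500 nM added 48 h post-transfection, CellTiter-Glo viability 72 h later. Normalized to plate-median negative control; MAD z-scores, gene median, seed-adjusted.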

Sequence | z-score
GGUCUAUAGGAAGAAAUGGTT against Csen | inactive: 0.432
GAACUCCCAACCCUGGCAATT against Klk5 | inactive: -0.754
GGGUUGAUUAAAGUUUAACTT against Gsh2 | inactive: 0.244
GCUGUUUUACCUUAAUCCCTT against Tnfsf18 | inactive: 1.41
GGUUCAGCCAGAAUUUUCGTT against Ebaf | inactive: 0.668
GGACACAUAAUGUCUACCUTT against Unc93a | inactive: 0.716
CGCACAAGUGCUUGAGUUATT against C330001K17Rik | inactive: 0.615
GGUUCUGGUGGUGAAUGUGTT against Kcnd1 | inactive: -1.38
GCCACACACCUUCUAUAAUTT against Ptprs | inactive: -0.0532
CCAUCAAAUCGAACUGUUUTT against Txndc1 | inactive: 1.21
GGAGAUCAAAGAUUUGAUUTT against Pi4k2a | inactive: -0.451
GGCUUCCUCAUCGAUAUAATT against Ccnh | inactive: -1.61
GGGUACCUGUCCAAGGUCATT against Mfn2 | inactive: 0.63
GGUUCACUGUUACACUCUGTT against Pctk2 | inactive: -0.589
GGACCAGAGUAACUUGAAUTT against Zfp128 | inactive: 0.00435
GCAACAUGGAAUGACCGCUTT against Cul2 | inactive: -0.838
CCAUUAAUUGAUGAUACUCTT against 1700019D03Rik | inactive: -0.881
GCCAUAUGGUGAAGUCCUATT against D11Ertd530e | inactive: -1.34
CCUGAAUGACCUAGGGCCUTT against Adam8 | inactive: 0.106
GGAAAGCUCACUAUUGUAUTT against BC011468 | inactive: -0.668
GGAAGGCAUUUUUCAGGUATT against Popdc3 | inactive: 0.93
GGCAAGGAGGAUGACAAAATT against 2310020H19Rik | inactive: 0.34
GGGUUCCAGUUUGUUUCCUTT against Cnbp1 | inactive: 0.634
CCCUAAAAAUUUUACCAAGTT against Mpp6 | inactive: 0.117
GCAUUAGCUGAUCAGCAUATT against Herc3 | inactive: 0.667
GGUGCAAAGCCCUUUAAGUTT against Klf7 | inactive: 0.343

Given in CSV form: entries from further up
Sequence,z-score
GGUUCAGCCAGAAUUUUCGTT against Ebaf,inactive: 0.668
GGAAGGCAUUUUUCAGGUATT against Popdc3,inactive: 0.93

Further records:

Sequence | z-score
GCCCAAAAAUACUGGAUAUTT against Atp6ap2 | inactive: -1.66
GCCUUCCUGAAUUUAAAGATT against Myo5b | inactive: 0.85
CGUUAUUUGAUUUCUUGGATT against Tdrd3 | inactive: 0.176
GCCCGAGAAGUGAAUCUUCTT against Pop7 | inactive: 1.59
CCACACGUGUUUCAAAAUGTT against D13Ertd275e | inactive: 1.28
GGUAGAAUACGUGUUCCUGTT against Cacna1f | inactive: -1.08
GGGAAUUGAUGAAAGCUCUTT against Tnrc15 | inactive: 0.888
GGAUAACGAUCCUUUUGACTT against Prss21 | inactive: -0.177
GGUGCUGCUAUUCCUGCACTT against Gpam | inactive: 0.317
GGCUGUACCCAGCAAAAAGTT against 4930431B11Rik | inactive: 1.2
GGCCUAUUUUUUCAUAGUUTT against Ptprs | inactive: -0.92
GGCAGUCACACAGUUUGAATT against B230209C24Rik | inactive: -0.416
GGAGAAGAAAAAGCGGUACTT against Plxnb2 | inactive: -1.27
GGAAAAUCUACAUUCCCUUTT against Ncstn | inactive: 0.123
CCUGUCCUCAUGACAUGAUTT against Mg29 | inactive: 0.595
GGGAUAAUGAUGCAACUAATT against T2R37 | inactive: -0.663
GGAGCACAAUAGUAAACUATT against Rpo1-4 | inactive: -2.5
GGCACCAUACUGGACAUACTT against Chpt1 | inactive: -0.354
CCAUAGACUAUUAUCCUUATT against E030041M21Rik | inactive: 0.663
GGUGGUUGGUACCUACAAUTT against D11Lgp1e | inactive: -2.1
GGAACAAGAACAAAAAGCATT against 0610040D20Rik | inactive: -0.89
GCAAGAACUCGCUGAUCCATT against Frap1 | inactive: -3.06
GGAGGCAUGCCCUAUGAAUTT against Zfp11 | inactive: -0.395
GCCAACUCGAACAUUUUGATT against Suhw2 | inactive: 1.83
GGAAGAUGAGGAGAAAGACTT against Rin3 | inactive: -0.678
GGACGCAGACAGGACAAAATT against Adprtl2 | inactive: -0.31

Sequence | z-score
GGAUGAAAAAUACUGGUGUTT against Ugt8 | inactive: 3.17
CCCGUCUCUUAAUCUGUUGTT against Ptprr | inactive: -0.801
GGAAAACCACAAAACAUGATT against Muc20 | inactive: 1.43
CCCUUAAUGAGACAAGGCATT against A630023P12Rik | inactive: -0.184
GGCACAAUUGAUCCUUUUUTT against Bk | inactive: 0.0195
CCCAACAUAUUUUUUAGCATT against Hmgcll1 | inactive: 0.175
GGCUUUUUCCUAAACUUGGTT against Nt5c | inactive: 0.935
GCCUGUGAUCUUUUGUAUCTT against Olfr835 | inactive: -0.000737
GCUCGAGUGUAAGAUCUGUTT against C630023L15Rik | inactive: 0.244
GUUAUCUGGAUAUCCUAUATT against Olfr1469 | inactive: 0.34
GGCAGAUGAUGGUCCAUGCTT against Tfpi | inactive: -0.948
GGCAAAAAGGACGUGAACCTT against Cblc | inactive: 1.37
CCUGAUUAGCAGAGACUUGTT against Col23a1 | inactive: -3.15
GCAGAACCAACAUGGCCGUTT against Polr3b | inactive: -0.847
CCUCUCUACAUAAAGUGCATT against 0610009B10Rik | inactive: 0.0965
GGCUCUCAAUGAUCAUCAUTT against Aldob | inactive: -0.791
GGUAGCGAUGUUUUCUUAUTT against C630002B14Rik | inactive: 0.0373
GGAGCUGCUCAUGUAUUCCTT against Gnb2 | inactive: 0.0561
GCAUUAGUGGACAUGUAUCTT against Slc6a13 | inactive: 1.05
GGAAGUGCUGCACAUACUATT against Bnc2 | inactive: -0.913
CGGUUGUGUGAGUAAAAUUTT against Pax6 | inactive: -1.17
GCUCAUAGAGACAAUUGCATT against Olfr822 | inactive: -1.18
GCAAUGUGUAUGGUAUCUUTT against Tas2r121 | inactive: -0.177
CCUAAAGGAAGGUUUCCAUTT against Cacng4 | inactive: 0.151
GGUUUCGAGAAAACAACAATT against D4Wsu114e | inactive: 0.206
GGAUUUGCUCACGGAACCATT against Olfr1230 | inactive: -1.49

Sequence | z-score
GGUAAAACCGUUUUUGACATT against 2410003C20Rik | inactive: -0.268
GGCGCAUAGCAUUUGACAUTT against Fbxl13 | inactive: 1.2
GGAGAUCCUGGGUACUGCATT against Rpl12 | inactive: -3.08
GCCCUUUGGAAGAAUACUCTT against 2310061A22Rik | inactive: 1.99
GGCUAUGAACUCUUAUUUCTT against Catns | inactive: 2.05
GGCUCUUACAUGAAAUGAUTT against Copb1 | inactive: -1.88
CCAUCUUGGAGAUCCUGAUTT against Htatip | inactive: -2.23
GCCUGUGCAAAAGAGAUUUTT against Gata3 | inactive: 1.17
GGAAAGUUGCACUAUUAUCTT against Ide | inactive: 2.8
GGAACAAUGGGUUCAUUUUTT against Ifi203 | inactive: -0.261
GUGGUAAACAGAAUGGUGATT against LOC432582 | inactive: 1.81
CGACAACAAUCUGGCCUAUTT against Ap2s1 | inactive: 1.63
GGCAGCAGCACUGAUUACUTT against Gja12 | inactive: -0.551
GGGAGAUGGGUUUGUGUAATT against 9030607L17Rik | inactive: -1.16
GGAGCUGAUGACUUCAGGCTT against Mmp19 | inactive: 1.18
GGAUCUGGUGACAAACGUATT against Cabyr | inactive: 1.08
GGAUCGGUGAGAUUGUAGCTT against MGC49146 | inactive: -1.4
GGAGAAAUGAAAAAACAGUTT against 1110014L17Rik | inactive: 0.441
GGCACACUUAAGUAAAAGUTT against Kras2 | inactive: 0.429
GGUCGUGAGCUUUAUGAGATT against Myo1d | inactive: 0.628
GCAUCAUCGUUUUUGGAAATT against A530082C11Rik | inactive: -0.043
GCAUUAGGAAAGUAAUAAGTT against Olfr11 | inactive: 0.00932
GAUGCUGGUUGACCUCCUATT against Olfr368 | inactive: -1.57
GCUGAUUGUCAAGGAAUAUTT against Tspyl1 | inactive: -1.76
GGCGGACGUGAAGAACUUGTT against 1110019O13Rik | inactive: 1.13
GCCCUGAAAUAGAAGUUGGTT against A930024E05Rik | inactive: 1.48

Pulled one by one from above (2):
Sequence | z-score
GGAAAGCUCACUAUUGUAUTT against BC011468 | inactive: -0.668
CCCGUCUCUUAAUCUGUUGTT against Ptprr | inactive: -0.801

— PubChem BioAssay AID1347423 (Functional Genomics Laboratory (NCATS/FGL), 2020)
